Reference: PubChem BioAssay AID1259424 (University of Nebraska Medical Center, 2018)
Here is one part, drawn at random, of about 14,000 deposited reagents. 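Higher correlation or smaller distance means closer resemblance to KSR1 loss; control wells, including KSR1 knockdowns, recur on many plates.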 Further read-outs or replicates are left out here. Not stated in the record: the time to read-out.

- Assay: 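Rank knockdowns across the genome by resemblance to the KSR1 depletion profile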 (primary screen)
- Cell system: human HCT116 colon cancer cells
- Reagent: siRNA pool against human genes, 50 nM
- Measured: 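Log2 levels of six mRNAs (branched-DNA multiplex), adjusted by two reference genes and the non-targeting median, then scored against the average KSR1 knockdown pattern as Pearson r and euclidean distance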
- Reading the numbers: mean correlation with KSR1 profile: higher = expression change more like KSR1 knockdown; mean distance from KSR1 profile: higher = expression change less like KSR1 knockdown

gene symbol,mean correlation with KSR1 profile,mean distance from KSR1 profile
RBM11,0.54,2.33
ELP3,0.19,2.88
TFB1M,0.514,1.99
XG,0.287,1.55
SPATA6L,-0.142,3.27
NOL8,0.297,2.42
USP20,0.0809,1.6
GIMAP4,0.313,1.91
FBXL7,0.00834,1.19
LGALS4,-0.393,3.16
HSPA8,0.037,1.57
MC3R,-0.22,2.76
IRS4,0.499,0.784
KIAA1549L,0.35,1.74
ABCB11,-0.386,2.58
CLCA3P,0.00306,1.13
DHRS7B,-0.305,1.33
DNAJC22,-0.418,2.15
UPK1A,0.317,1.86
KHDC4,-0.567,1.64
FAM193A,-0.188,1.92
ZBTB20,-0.226,2.46
SCHIP1,-0.213,1.92
MRPS34,0.312,2.32
PCDHA5,0.46,1.3
YIPF3,-0.411,1.97
ZBTB7B,-0.524,2.11
CHLSN,0.745,2.3
PNP,0.692,4.73
CORO7,0.635,2.49
CDYL,-0.916,3.96
APOM,0.391,1.08
NXF1,0.438,3.96
TMEM59L,-0.216,3.39
DENND3,-0.809,1.37
SLC35B3,0.354,1.68
NFYA,0.767,1.77
CHMP2B,-0.36,3.32
NOX5,0.545,0.892
PPARGC1B,0.364,1.45
COPG2,0.161,1.99
CD200R1,-0.324,1.66
C1D,-0.0613,2.65
EPB42,-0.275,2.13
WDR1,0.166,3.09
KLF1,0.388,2.06
ARHGEF40,-0.265,3.8
HSP90B1,0.367,2.92
BCAS3,-0.183,1.6
MRPL41,0.38,1.09

Part of the list above, showing only “mean distance from KSR1 profile”:
HSPA8	1.57
MC3R	2.76
IRS4	0.784
KIAA1549L	1.74
